# Measurements as given in article doi:10.1101/2021.08.25.457684.
# Chains of the proteins cited; added tags and fusions are not shown.
# UniProt Q8IXI2: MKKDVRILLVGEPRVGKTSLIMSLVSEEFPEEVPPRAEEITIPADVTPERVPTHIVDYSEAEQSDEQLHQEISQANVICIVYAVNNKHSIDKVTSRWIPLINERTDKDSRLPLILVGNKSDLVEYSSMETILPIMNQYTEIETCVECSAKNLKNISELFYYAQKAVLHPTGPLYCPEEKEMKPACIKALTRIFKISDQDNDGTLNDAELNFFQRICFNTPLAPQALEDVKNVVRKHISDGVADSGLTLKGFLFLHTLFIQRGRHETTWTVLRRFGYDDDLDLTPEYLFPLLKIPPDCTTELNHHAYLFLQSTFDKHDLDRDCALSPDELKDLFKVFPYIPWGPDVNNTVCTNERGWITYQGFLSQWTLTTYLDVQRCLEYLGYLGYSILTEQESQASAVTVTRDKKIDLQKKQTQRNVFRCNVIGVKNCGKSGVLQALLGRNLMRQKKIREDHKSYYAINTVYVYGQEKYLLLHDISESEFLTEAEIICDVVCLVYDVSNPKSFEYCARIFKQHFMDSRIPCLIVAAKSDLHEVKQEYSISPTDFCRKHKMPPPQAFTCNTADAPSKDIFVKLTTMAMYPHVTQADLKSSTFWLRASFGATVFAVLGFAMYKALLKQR
# UniProt Q9BXM7: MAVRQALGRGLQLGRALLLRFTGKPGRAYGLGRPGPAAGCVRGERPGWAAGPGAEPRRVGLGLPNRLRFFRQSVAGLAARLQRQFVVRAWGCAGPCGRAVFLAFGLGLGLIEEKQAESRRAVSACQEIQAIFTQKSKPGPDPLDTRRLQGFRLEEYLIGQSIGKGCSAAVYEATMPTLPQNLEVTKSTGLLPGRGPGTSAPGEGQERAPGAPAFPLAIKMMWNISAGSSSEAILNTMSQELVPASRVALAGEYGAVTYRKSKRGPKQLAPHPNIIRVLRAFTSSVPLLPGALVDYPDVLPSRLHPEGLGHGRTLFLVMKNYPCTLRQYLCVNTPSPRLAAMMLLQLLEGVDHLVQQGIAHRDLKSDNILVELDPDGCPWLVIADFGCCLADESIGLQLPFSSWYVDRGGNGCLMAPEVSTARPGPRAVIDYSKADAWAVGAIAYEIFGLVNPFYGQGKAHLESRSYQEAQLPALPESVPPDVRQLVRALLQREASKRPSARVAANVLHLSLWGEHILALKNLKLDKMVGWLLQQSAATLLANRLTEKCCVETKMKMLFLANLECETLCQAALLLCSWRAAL
# These are yes or no findings as the source states them, for the method shown. Binding seen in cells or lysates may run through a third protein. For some assays here: Tags and fused reporters may be left off the sequences shown.
# Tests used:
# [1] = target: T1, Mitofusin-1 (human (endogenous in U2OS)) (UniProt Q8IWA4); test: proximity ligation
# T1 sequence: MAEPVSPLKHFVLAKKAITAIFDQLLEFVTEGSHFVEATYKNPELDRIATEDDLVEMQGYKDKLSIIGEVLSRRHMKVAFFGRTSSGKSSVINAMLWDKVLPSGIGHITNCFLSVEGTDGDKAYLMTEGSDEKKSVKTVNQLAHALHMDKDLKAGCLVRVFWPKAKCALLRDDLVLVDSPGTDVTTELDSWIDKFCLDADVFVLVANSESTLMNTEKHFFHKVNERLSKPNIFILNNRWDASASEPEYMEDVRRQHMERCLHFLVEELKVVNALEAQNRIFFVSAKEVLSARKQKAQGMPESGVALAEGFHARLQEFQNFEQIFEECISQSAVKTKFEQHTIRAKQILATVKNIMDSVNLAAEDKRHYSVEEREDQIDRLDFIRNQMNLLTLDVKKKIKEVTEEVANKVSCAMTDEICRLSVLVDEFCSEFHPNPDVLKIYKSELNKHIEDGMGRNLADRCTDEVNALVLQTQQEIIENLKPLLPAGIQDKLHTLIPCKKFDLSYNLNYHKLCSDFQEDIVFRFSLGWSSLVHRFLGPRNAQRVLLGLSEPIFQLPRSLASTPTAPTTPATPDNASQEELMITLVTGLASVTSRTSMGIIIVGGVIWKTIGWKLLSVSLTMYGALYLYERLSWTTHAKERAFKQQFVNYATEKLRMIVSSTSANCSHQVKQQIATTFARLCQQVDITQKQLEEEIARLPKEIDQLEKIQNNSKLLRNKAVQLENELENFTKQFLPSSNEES
# [2] = target: Miro1 (human (endogenous in U2OS)) (UniProt Q8IXI2); test: proximity ligation
substance,measurement,setting,value
PINK1(WT)-3HA (from UniProt Q9BXM7 1-581) (enzyme),binding,[1],no binding
same,binding,[2],no binding
